Source: PubChem BioAssay AID1259308 (NCATS, 2017)

Aim: 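Candidate targets for better recombinant protein yield in mammalian cells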 (primary screen)
Cell system: human HEK293 embryonic kidney cells stably expressing firefly luciferase (HEK-CMV-Luc2-Hygro)
Reagent: single siRNA against human genes, 0.8 pmol siRNA per well
Timing: 72 h
Detection: 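Reporter luminescence and viable-cell signal on separate replicate plates, given as percent of non-targeting control and median/MAD z-scores, plus per-cell luciferase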
Scale: total luciferase, z-score and total luciferase, % of control: higher = more reporter protein produced; luciferase per cell, z-score: higher = more reporter output per viable cell; viable cells, % of control: higher = more viable cells
Rule for the call: 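Active when the median/MAD z-score for overall luciferase is greater than 3; a gene was taken forward for validation with new siRNAs if at least two of its three siRNAs passed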
Calls: active = raised luciferase; inactive = no rise
The deposit covers about 59,000 reagents; below is a part drawn at random. About 1,510 of all reagents (2.6%) count as active. 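Calls use total luciferase alone and ignore viability, so some active siRNAs may act by altering cell number.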 A number with no mark means an inactive call. Reagents against one gene are numbered here.

gene symbol | siRNA no. | total luciferase, z-score | total luciferase, % of control | luciferase per cell, z-score | viable cells, % of control
SHROOM4 (GeneID 57477) | 1 | 0.483 | 91.5 | 0.323 | 93.9
SHROOM4 (GeneID 57477) | 2 | 1.49 | 111 | 0.848 | 99.6
SHROOM4 (GeneID 57477) | 3 | -0.0903 | 80.1 | 0.175 | 85.5
SLC23A2 (GeneID 9962) | 1 | 1.32 | 108 | 1.26 | 86.8
SLC23A2 (GeneID 9962) | 2 | 0.555 | 92.9 | 0.0848 | 102
SLC23A2 (GeneID 9962) | 3 | -0.185 | 78.2 | 0.149 | 84
SMC2 (GeneID 10592) | 1 | -0.0601 | 80.7 | -0.156 | 94
SMC2 (GeneID 10592) | 2 | 0.185 | 85.6 | 1.05 | 72.4
SMC2 (GeneID 10592) | 3 | -0.603 | 69.9 | -0.978 | 101
NMRK1 (GeneID 54981) | 1 | 4.26 (active) | 167 | 3.61 | 72
NMRK1 (GeneID 54981) | 2 | -0.121 | 79.5 | -0.258 | 95.1
NMRK1 (GeneID 54981) | 3 | -1.4 | 54 | -1.31 | 85.2
CDCA7 (GeneID 83879) | 1 | 2.31 | 128 | 1.66 | 92.3
CDCA7 (GeneID 83879) | 2 | 4.59 (active) | 173 | 3.23 | 82.7
CDCA7 (GeneID 83879) | 3 | 4.54 (active) | 172 | 2.84 | 91
SLC6A16 (GeneID 28968) | 1 | 0.416 | 90.2 | 0.12 | 97.6
SLC6A16 (GeneID 28968) | 2 | -0.651 | 68.9 | 0.12 | 74.6
SLC6A16 (GeneID 28968) | 3 | -0.0496 | 80.9 | -0.331 | 98.6
SLC35A1 (GeneID 10559) | 1 | 0.245 | 86.8 | 0.327 | 89
SLC35A1 (GeneID 10559) | 2 | 0.441 | 90.7 | 0.375 | 91.8
SLC35A1 (GeneID 10559) | 3 | 3.74 (active) | 156 | 2.86 | 82.2
FENDRR (GeneID 400550) | 1 | 0.26 | 87.1 | -0.175 | 102
FENDRR (GeneID 400550) | 2 | -0.616 | 69.6 | -0.317 | 84.6
FENDRR (GeneID 400550) | 3 | 0.45 | 90.8 | 2.03 | 59.5
FENDRR (GeneID 400550) | 4 | -0.678 | 68.4 | -0.322 | 83.2
FENDRR (GeneID 400550) | 5 | 1.31 | 108 | 2.51 | 62.3
FENDRR (GeneID 400550) | 6 | -1.24 | 57.3 | -0.748 | 77.9
UBE2V2 (GeneID 7336) | 1 | 0.704 | 95.9 | 1.4 | 74.2
UBE2V2 (GeneID 7336) | 2 | 0.0969 | 83.8 | 1.3 | 66.5
UBE2V2 (GeneID 7336) | 3 | 1.44 | 111 | 1.24 | 89.3
ST8SIA3 (GeneID 51046) | 1 | 1.46 | 111 | 1.17 | 91.1
ST8SIA3 (GeneID 51046) | 2 | 1.54 | 113 | 1.2 | 91.6
ST8SIA3 (GeneID 51046) | 3 | 0.781 | 97.4 | 0.237 | 102
RECQL4 (GeneID 9401) | 1 | 2.56 | 133 | 2.14 | 84.4
RECQL4 (GeneID 9401) | 2 | 0.297 | 87.8 | -0.0559 | 99.6
RECQL4 (GeneID 9401) | 3 | 0.438 | 90.6 | 0.888 | 80.1
PLEKHO2 (GeneID 80301) | 1 | 0.971 | 101 | 1.08 | 85.1
PLEKHO2 (GeneID 80301) | 2 | 1.02 | 102 | 0.157 | 109
PLEKHO2 (GeneID 80301) | 3 | 0.442 | 90.7 | 0.018 | 101
TAS2R38 (GeneID 5726) | 1 | 1.67 | 115 | 2.52 | 66.4
TAS2R38 (GeneID 5726) | 2 | -0.3 | 75.9 | -0.435 | 95.1
TAS2R38 (GeneID 5726) | 3 | 3.94 (active) | 160 | 2.5 | 92.7
PPTC7 (GeneID 160760) | 1 | -0.231 | 77.3 | -1.12 | 116
PPTC7 (GeneID 160760) | 2 | -0.894 | 64.1 | -0.148 | 74.5
PPTC7 (GeneID 160760) | 3 | 0.652 | 94.9 | 0.63 | 89.8
CDCA4 (GeneID 55038) | 1 | 0.987 | 102 | 0.368 | 103
CDCA4 (GeneID 55038) | 2 | 0.502 | 91.9 | 0.113 | 99.7
CDCA4 (GeneID 55038) | 3 | 0.375 | 89.3 | 1.25 | 71.9
TAL1 (GeneID 6886) | 1 | 1.42 | 110 | 1.68 | 79.1
TAL1 (GeneID 6886) | 2 | 0.852 | 98.8 | 1.27 | 79.1
TAL1 (GeneID 6886) | 3 | -0.304 | 75.8 | -0.793 | 104
RCAN3 (GeneID 11123) | 1 | 0.869 | 99.2 | 1.36 | 77.4
RCAN3 (GeneID 11123) | 2 | -1.09 | 60.2 | -1.37 | 96.5
RCAN3 (GeneID 11123) | 3 | 1.52 | 112 | 1.64 | 81.4
UBL4B (GeneID 164153) | 1 | -1.06 | 60.7 | -0.574 | 79
UBL4B (GeneID 164153) | 2 | -1.24 | 57.3 | -1.13 | 86.2
UBL4B (GeneID 164153) | 3 | -0.255 | 76.8 | 0.25 | 80.4
